# Cleaved PARP after 72 h of treatment

Source: doi:10.1371/journal.pone.0140310, primary screening data, rounded.

Drug key:
OSI-906, 2000 nM: C[C@]1(O)C[C@@H](c2nc(-c3ccc4ccc(-c5ccccc5)nc4c3)c3c(N)nccn32)C1
GW441756, 2000 nM: Cn1cc(/C=C2\C(=O)Nc3cccnc32)c2ccccc21
lenalidomide, 5000 nM: Nc1cccc2c1CN(C1CCC(=O)NC1=O)C2=O (configuration not stated)
vorinostat, 400 nM: O=C(CCCCCCC(=O)Nc1ccccc1)NO
FH535, 5000 nM: Cc1cc([N+](=O)[O-])ccc1NS(=O)(=O)c1cc(Cl)ccc1Cl
MK-1775, 100 nM: C=CCn1c(=O)c2cnc(Nc3ccc(N4CCN(C)CC4)cc3)nc2n1-c1cccc(C(C)(C)O)n1
GW0742, 10000 nM: Cc1cc(SCc2sc(-c3ccc(C(F)(F)F)c(F)c3)nc2C)ccc1OCC(=O)O
CP-690550, 5000 nM: C[C@@H]1CCN(C(=O)CC#N)C[C@@H]1N(C)c1ncnc2[nH]ccc12

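Human melanoma cell lines in 1,536-well plates were treated with a pair of drugs for 72 h, then fixed, stained and imaged. Values are the share of nuclei positive for cleaved PARP as a percentage of the same share in the DMSO control: 100 is the control level, higher means more apoptosis. Concentrations were fixed for each drug; these are the higher of two levels. The file gives one value for each pair and line, without errors, so small differences may be noise. The marker varies much from line to line, for technical or biological reasons.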 An unselected part of the screen is shown. A dash means that no value is listed here.

Pair,WM1745,WM115,A101D,SK-MEL-5,WM3526,WM3619,COLO 829,WM1716,G-361,LB2518-MEL,MeWo,IPC-298,A2058,RPMI-7951,WM451Lu
CP-690550 and FH535,97.2,188,124,224,103,111,199,76.8,349,73.4,83.7,77.4,172,219,59.2
GW441756 and lenalidomide,157,286,90.2,125,295,141,186,59.9,23.5,63.7,174,199,159,75.5,199
vorinostat and OSI-906,150,60.8,179,182,176,172,85.7,97.0,240,53.6,182,72.9,59.2,225,95.8
CP-690550 and MK-1775,484,132,62.1,153,236,171,35.6,164,89.9,96.6,218,25.2,64.8,104,186
OSI-906 and GW441756,-,91.7,97.3,323,158,89.9,91.0,20.2,42.2,-,43.3,71.7,113,75.8,16.2
MK-1775 and GW441756,413,146,77.8,152,78.2,311,124,62.9,104,89.4,157,134,159,84.1,86.0
vorinostat and GW0742,96.4,24.1,62.6,130,63.2,147,92.2,110,92.8,35.7,126,183,91.1,60.5,32.5
GW0742 and CP-690550,102,63.8,61.5,74.8,116,101,92.6,45.6,61.5,49.0,85.1,265,70.5,41.3,88.9
OSI-906 and GW0742,-,42.5,32.9,149,123,86.9,60.4,48.1,51.4,44.0,145,92.6,112,231,61.3
MK-1775 and GW0742,167,147,69.4,257,97.9,250,45.8,169,141,52.2,141,153,250,106,74.1
OSI-906 and CP-690550,205,60.1,55.1,38.5,35.1,80.1,41.3,42.8,81.8,-,67.5,521,46.7,82.9,104
GW0742 and GW441756,147,51.3,105,93.7,77.6,92.0,75.0,33.9,133,93.8,138,113,93.9,37.3,35.0
FH535 and GW0742,79.4,152,53.6,157,74.8,76.5,175,66.9,158,64.8,33.5,144,98.0,63.6,46.9
GW0742 and lenalidomide,110,130,45.0,234,53.1,99.5,146,48.5,48.7,31.7,75.7,83.7,68.6,71.4,76.0
FH535 and GW441756,145,127,108,138,64.9,126,33.8,70.7,165,77.5,105,109,222,80.3,102
MK-1775 and OSI-906,247,381,89.5,187,316,291,51.6,103,176,58.5,286,151,177,335,109
vorinostat and FH535,174,58.2,95.9,263,78.1,154,90.7,42.2,427,144,108,72.2,111,59.2,64.8
OSI-906 and lenalidomide,261,95.8,71.5,143,137,108,101,167,105,151,94.0,103,145,160,170
lenalidomide and vorinostat,89.3,156,225,184,213,108,249,126,164,138,118,67.5,47.9,116,110
lenalidomide and MK-1775,358,113,74.4,195,147,1190,83.4,80.9,162,132,11.9,206,126,98.9,173
MK-1775 and vorinostat,217,215,128,192,123,145,170,307,122,75.9,169,106,101,167,91.8

Once more, the final 2:

Pair,WM1745,WM115,A101D,SK-MEL-5,WM3526,WM3619,COLO 829,WM1716,G-361,LB2518-MEL,MeWo,IPC-298,A2058,RPMI-7951,WM451Lu
lenalidomide and MK-1775,358,113,74.4,195,147,1190,83.4,80.9,162,132,11.9,206,126,98.9,173
MK-1775 and vorinostat,217,215,128,192,123,145,170,307,122,75.9,169,106,101,167,91.8